Experimental data from patent US20190240184A1, “PHARMACEUTICAL APPLICATIONS FOR (S)-N[…] SALTS THEREOF” (NATIONAL UNIVERSITY CORPORATION CHIBA UNIVERSITY, priority 2016, published 2019).
At least one structure is not confirmed: it was looked up by name or label, or the drawing left a doubt.

Tested on: social defeat stress mice
Assay: 1% sucrose preference test (SPT) in social defeat stress model of depression
Conditions: 30 mg/kg perorally, three days and seven days after administration

Cc1oc(=O)oc1COC(=O)N[C@]1(c2ccccc2Cl)CCCCC1=O [Compound 1, (5-methyl-2-oxo-1,3-dioxol-4-yl)methyl-(S)-(1-(2-chlorophenyl)-2-oxocyclohexyl) carbamate]
consumption of the sucrose solution in 1% sucrose preference test: significant improvement
